Values are relative to the signal before dosing, not to a vehicle control; the signal also falls without drug.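 The tumor cells are basal-like or mesenchymal-like triple-negative breast cancer lines cultured without fibroblasts. Reduced red signal indicates lost mitochondrial integrity, serving as a proxy for apoptotic death.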
Legend:
MDAMB436 = experiment: relative JC-1 red fluorescence (viability) vs pre-drug, monoculture (fraction); higher = more viable cancer cells; conditions: coculture fibroblast: none (monoculture)
Protocol: (§1)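 JC-1 labelled TNBC cells grown in monoculture (density kept equal with unlabelled cancer cells) in 384-well plates in FluoroBrite medium, treated with one of 42 anticancer drugs at 0.1, 1, 10 or 100 uM. JC-1 red fluorescence (mitochondrial integrity, surrogate of apoptotic death) was read by plate reader every 8 h for 72 h. Values are normalised to each well's pre-drug value, with background from alamethicin. The stock of one drug was tenfold lower, so its dose labels may be too high. Monoculture values are repeated alongside each fibroblast plate and are averaged here.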

MDAMB231 = experiment: as above; conditions: coculture fibroblast: none (monoculture)
Protocol: as §1

CCCCCOC(=O)Nc1nc(=O)n([C@@H]2O[C@H](C)[C@@H](O)[C@H]2O)cc1F [Capecitabine]
relative JC-1 red fluorescence
Conditions | 8 h | 16 h | 24 h | 32 h | 40 h | 48 h | 56 h | 64 h | 72 h
MDAMB231, 0.1 µM | 0.837 | 0.786 | 0.758 | 0.799 | 0.793 | 0.688 | 0.808 | 0.748 | 0.735
MDAMB231, 1 µM | 0.752 | 0.719 | 0.681 | 0.611 | 0.567 | 0.56 | 0.536 | 0.549 | 0.549
MDAMB231, 10 µM | 0.769 | 0.7348 | 0.664 | 0.605 | 0.568 | 0.55 | 0.525 | 0.54 | 0.537
MDAMB231, 100 µM | 0.771 | 0.764 | 0.674 | 0.6551 | 0.626 | 0.598 | 0.57 | 0.585 | 0.571
MDAMB436, 0.1 µM | 0.843 | 0.701 | 0.7134 | 0.6542 | 0.6362 | 0.62591 | 0.6262 | 0.6223 | 0.6275
MDAMB436, 1 µM | 0.8802 | 0.867 | 0.834 | 0.807 | 0.809 | 0.817 | 0.824 | 0.828 | 0.839
MDAMB436, 10 µM | 0.8767 | 0.801 | 0.777 | 0.731 | 0.722 | 0.707 | 0.704 | 0.704 | 0.701
MDAMB436, 100 µM | 0.89 | 0.8103 | 0.785 | 0.731 | 0.712 | 0.698 | 0.688 | 0.681 | 0.678

N.N.[Cl][Pt][Cl] [Cisplatin]
relative JC-1 red fluorescence
Conditions | 8 h | 16 h | 24 h | 32 h | 40 h | 48 h | 56 h | 64 h | 72 h
MDAMB231, 0.1 µM | 0.744 | 0.708 | 0.671 | 0.653 | 0.607 | 0.587 | 0.555 | 0.575 | 0.57
MDAMB231, 1 µM | 0.705 | 0.6539 | 0.695 | 0.621 | 0.606 | 0.616 | 0.615 | 0.649 | 0.653
MDAMB231, 10 µM | 0.731 | 0.696 | 0.734 | 0.647 | 0.614 | 0.616 | 0.592 | 0.625 | 0.628
MDAMB231, 100 µM | 0.66 | 0.649 | 0.61375 | 0.567 | 0.504 | 0.487 | 0.465 | 0.469 | 0.458
MDAMB436, 0.1 µM | 0.872 | 0.82 | 0.87 | 0.842 | 0.859 | 0.879 | 0.897 | 0.855 | 0.848
MDAMB436, 1 µM | 0.7757 | 0.773 | 0.795 | 0.762 | 0.773 | 0.799 | 0.816 | 0.688 | 0.768
MDAMB436, 10 µM | 0.849 | 0.882 | 0.837 | 0.832 | 0.81 | 0.871 | 0.876 | 0.8611 | 0.885
MDAMB436, 100 µM | 0.823 | 0.782 | 0.782 | 0.734 | 0.72 | 0.72 | 0.718 | 0.726 | 0.734

C#Cc1cccc(Nc2ncnc3cc(OCCOC)c(OCCOC)cc23)c1 [Erlotinib]
relative JC-1 red fluorescence
Conditions | 8 h | 16 h | 24 h | 32 h | 40 h | 48 h | 56 h | 64 h | 72 h
MDAMB231, 0.1 µM | 0.75 | 0.741 | 0.668 | 0.683 | 0.626 | 0.619 | 0.574 | 0.592 | 0.575
MDAMB231, 1 µM | 0.704 | 0.6921 | 0.719 | 0.66919 | 0.64418 | 0.6444 | 0.618 | 0.6455 | 0.6413
MDAMB231, 10 µM | 0.782 | 0.807 | 0.731 | 0.807 | 0.785 | 0.78 | 0.763 | 0.772 | 0.763
MDAMB231, 100 µM | 0.801 | 0.836 | 0.816 | 0.862 | 0.847 | 0.846 | 0.847 | 0.862 | 0.866
MDAMB436, 0.1 µM | 0.856 | 0.822 | 0.774 | 0.707 | 0.692 | 0.682 | 0.675 | 0.675 | 0.68
MDAMB436, 1 µM | 0.811 | 0.759 | 0.751 | 0.693 | 0.667 | 0.659 | 0.642 | 0.635 | 0.625
MDAMB436, 10 µM | 0.9006 | 0.851 | 0.842 | 0.8 | 0.784 | 0.762 | 0.751 | 0.752 | 0.732
MDAMB436, 100 µM | 0.819 | 0.872 | 0.924 | 0.901 | 0.916 | 0.785 | 0.8726 | 0.876 | 0.906

C[C@]12CC[C@@H]3c4ccc(O)cc4C[C@@H](CCCCCCCCC[S+]([O-])CCCC(F)(F)C(F)(F)F)[C@H]3[C@@H]1CC[C@@H]2O (stereo partly drawn) [Fulvestrant]
relative JC-1 red fluorescence
Conditions | 8 h | 16 h | 24 h | 32 h | 40 h | 48 h | 56 h | 64 h | 72 h
MDAMB231, 0.1 µM | 0.742 | 0.728 | 0.561 | 0.6272 | 0.585 | 0.547 | 0.509 | 0.501 | 0.485
MDAMB231, 1 µM | 0.775 | 0.775 | 0.796 | 0.817 | 0.798 | 0.743 | 0.622 | 0.668 | 0.732
MDAMB231, 10 µM | 0.861 | 0.983 | 0.737 | 0.951 | 0.935 | 0.909 | 0.891 | 0.878 | 0.873
MDAMB231, 100 µM | 0.864 | 0.815 | 0.86 | 0.8522 | 0.785 | 0.8429 | 0.781 | 0.847 | 0.725
MDAMB436, 0.1 µM | 0.85 | 0.749 | 0.723 | 0.644 | 0.634 | 0.611 | 0.596 | 0.589 | 0.585
MDAMB436, 1 µM | 0.869 | 0.7805 | 0.78532 | 0.7387 | 0.737 | 0.733 | 0.721 | 0.713 | 0.716
MDAMB436, 10 µM | 0.9658 | 0.9309 | 0.924 | 0.868 | 0.86 | 0.854 | 0.83 | 0.817 | 0.798
MDAMB436, 100 µM | 0.844 | 0.87 | 0.8037 | 0.917 | 0.876 | 0.833 | 0.911 | 0.891 | 0.883

From the supplement of paper PMC6078165
